Screen size: about 360,000 compounds; about 10,000 (2.8%) were called active. Inconclusive results, whose numbers are uncertain, are shown with a selection of clear calls. Calls follow the shape of the dose curve; as a rule, active = well fitted inhibition curve with a large enough effect; inconclusive = small, poorly fitted or top-dose-only effect; inactive = flat fitted curve, though single readings scatter. A potency beside an inconclusive call is a rough fit, not a confirmed value.
biological target: Serine/threonine-protein kinase PLK1 (Homo sapiens) (UniProt P53350); experiment: qHTS for Inhibitors of PLK1-PDB (polo-like kinase 1 - polo-box domain): Primary Screen; settings: Plk1 PBD binding of FITC phosphopeptide, fluorescence polarization; also: nearly all actives have a fitted effect of over 65% in size; as to max response, negative = inhibition: series mostly up to about 57 µM
% is scaled to controls: 0 for no effect and ±100 for the full control effect; potency is read from the fitted curve at half-maximal effect.

Sequences of proteins named here, by UniProt entry; tags and fusion partners are left off.
UniProt P53350, whole entry, looked up: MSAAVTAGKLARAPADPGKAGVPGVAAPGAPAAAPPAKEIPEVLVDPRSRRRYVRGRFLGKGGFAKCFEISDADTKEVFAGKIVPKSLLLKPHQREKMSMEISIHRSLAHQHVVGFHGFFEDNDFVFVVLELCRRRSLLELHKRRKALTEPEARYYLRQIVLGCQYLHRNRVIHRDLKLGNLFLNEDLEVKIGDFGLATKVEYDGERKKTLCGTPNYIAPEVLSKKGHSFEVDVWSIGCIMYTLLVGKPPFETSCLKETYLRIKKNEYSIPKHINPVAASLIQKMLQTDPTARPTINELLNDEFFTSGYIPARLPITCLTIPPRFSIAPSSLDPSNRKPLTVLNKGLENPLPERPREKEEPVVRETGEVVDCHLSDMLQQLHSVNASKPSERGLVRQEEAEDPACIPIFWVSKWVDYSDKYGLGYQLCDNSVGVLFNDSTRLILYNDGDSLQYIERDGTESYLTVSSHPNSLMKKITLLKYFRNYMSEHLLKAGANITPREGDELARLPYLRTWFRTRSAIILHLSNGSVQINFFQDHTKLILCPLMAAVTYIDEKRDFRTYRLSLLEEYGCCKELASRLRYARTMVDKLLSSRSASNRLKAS

SMILES | max response, negative = inhibition | Potency
COC(=O)C[C@@H]1CC[C@H](NS(=O)(=O)c2ccccc2F)[C@@H](CO)O1 | inactive: -4.66% | –
CCC(C)NC(=O)C1(NC(=O)Nc2ccccc2)CCCCC1 (centres undefined) | – | active: 10.6 µM
CCOc1c(Cl)cc(CNc2ccc(N3CCCC3)cc2)cc1OC | – | inconclusive: 26.7 µM [inhibitor, partial curve]
CC12CC(O)C3C(CCC4=CC(=O)CCC43C)C1CCC2=CCO (centres undefined) | inactive: -6.77% | –
CCCC(C)NC(=O)CSc1nnc(-c2c[nH]c3ccccc23)o1 (centres undefined) | inactive: 1.26% | –
CCc1c(C)sc(NC(=O)c2ccc(Br)o2)c1C(=O)OC | inactive: -7.98% | –
Cc1c(NC(=O)c2cccs2)cccc1-c1nc2ccccc2s1 | – | inconclusive: 26.7 µM [inhibitor, partial curve]
CCc1ccc([C@@H]2CC=C(C(=O)O)[C@H](c3ccccc3)N2S(=O)(=O)c2ccc(C)cc2)cc1 | – | inconclusive: 23.8 µM [inhibitor, single point]
O=C(NCc1ccc(N2CCCC2=O)cc1)c1ccc(F)cc1 | – | inconclusive: 18.9 µM [inhibitor, partial curve]
COC(C[C@H](O)C[C@@H](O)[C@H](C)OCc1ccccc1)OC | inactive: -4.8% | –
Cc1nn(-c2ccccc2)c2nc(C(Cl)(Cl)Cl)[nH]c(=O)c12 | – | inconclusive: 33.6 µM [inhibitor, single point]
CC(C)(C)CC(=O)Nc1nnc(-c2cccs2)s1 | – | inconclusive: 33.6 µM [inhibitor, single point]
Cn1c(=O)c2cc(NC(=O)Cc3ccccc3F)ccc2n1-c1ccc(C(C)(C)C)cc1 | inactive: -4.59% | –
Cn1ccc2c(N3CCCCC3)cc3c(c21)C1CCC3C1 (centres undefined) | inactive: 0.838% | –
COc1ccc(OC)c(NS(=O)(=O)c2ccc(NC(=O)C3COc4ccccc4O3)cc2)c1 (centres undefined) | inactive: -0.613% | –
COc1cccc(C2c3[nH]c4ccccc4c3C[C@H]3C(=O)N(c4ccccc4C(=O)N4CCC[C@H]4C(=O)O)C(=O)N23)c1 (some centres undefined) | – | inconclusive: 75.2 µM [inhibitor, partial curve]
CCN(C(=O)CN1C(=S)NC(C)(C)CC1C)c1ccc(C)c(C)c1 (centres undefined) | – | inconclusive: 37.7 µM [inhibitor, single point]
COc1ccc(S(=O)(=O)NCCc2ccccc2)c2cccnc12 | inconclusive: -35.5% [inhibitor] | –
Cc1ccc(S(=O)(=O)/N=C(\Sc2ccccc2)c2ccccc2)cc1 | – | inconclusive: 1.19 µM [inhibitor, full curve, poor fit]
COc1ccc2c(=O)c3c(=O)n(Cc4ccco4)c(-c4ccco4)nc3oc2c1 | – | inconclusive: 31.6 µM [inhibitor, partial curve]
CCCCC(=O)Nc1nc2ccc(C(=O)OC)cc2s1 | inactive: -9.06% | –
N#CCSC1=Nc2ccccc2C2=NC(CCC(=O)N3CCN(c4ccccc4)CC3)C(=O)N12 (centres undefined) | – | inconclusive: 21.2 µM [inhibitor, partial curve]
CCCOc1ccc(N2C(=O)CC(N(CCC)C(=O)CCC(=O)O)C2=O)cc1 (centres undefined) | inactive: -5.75% | –
O=C1CSC(=NC2CCCCC2)N1 | – | inconclusive: 23.8 µM [inhibitor, partial curve]
Cc1cc(C)c2c(N)c(C(=O)NCc3ccco3)sc2n1 | inactive: 0.987% | –

SMILES | max response, negative = inhibition | Potency
COc1ccc(Nc2nc(C)cc(=O)[nH]2)cc1 | inactive: -7.37% | –
NC(=O)C1CCCN(C(=O)c2cccc(S(=O)(=O)N3CCCCCC3)c2)C1 (centres undefined) | inactive: -4.44% | –
O=C(COC(=O)CCC1CCCC1)Nc1ccccc1Br | inactive: 4.77% | –
COc1ccc(CC(=O)Nc2sccc2C#N)cc1S(=O)(=O)N1CCOCC1 | inactive: -9.49% | –
Cc1onc(-c2ccccc2)c1C(=O)n1nnc2ccccc21 | – | inconclusive: 18.9 µM [inhibitor, partial curve]
CC(NC(=O)c1cccc(S(=O)(=O)N(C)C)c1)c1nc2ccccc2[nH]1 (centres undefined) | – | inconclusive: 10.6 µM [inhibitor, partial curve]
CCOC(=O)CCC(=O)NNC(=O)c1ccc(NC(=O)c2ccccc2)cc1 | – | active: 29.9 µM
COc1cc(/C=C2\C(=N)N3N=C(C(C)C)SC3=NC2=O)ccc1OCCOc1ccc(NC(C)=O)cc1 | inconclusive: -30.9% [inhibitor] | –
COc1ccccc1N1CCN(C(=O)C2CCCN(S(=O)(=O)c3ccc4c(c3)CCCN4C(C)=O)C2)CC1 (centres undefined) | – | inconclusive: 33.6 µM [inhibitor, single point]
NC(=S)NC(=O)c1ccccc1 | inconclusive: -30.8% [inhibitor] | –
CCOC(=O)c1ccc(S(=O)(=O)NNC(=O)COc2cccc(C)c2)cc1 | – | inconclusive: 37.7 µM [inhibitor, partial curve]
C/C(=N\Nc1cccc(C(=O)O)c1)c1ccc(Cl)s1 | – | inconclusive: 26.7 µM [inhibitor, single point]
Cc1ccc(C(=O)NC2CC3CCCC(C2)N3C(=S)NCc2ccco2)cc1 (centres undefined) | – | inconclusive: 26.7 µM [inhibitor, single point]
O=C(Cn1cnc2ccccc2c1=O)OCC(=O)c1ccc2c(c1)OCCO2 | – | active: 29.9 µM
COc1nc(-c2ccccc2)cc(-c2ccc(OC)c(OC)c2)n1 | inactive: 1.44% | –
O=S(NCc1ccco1)C12CC3CC(CC(C3)C1)C2 (centres undefined) | – | inconclusive: 11.9 µM [inhibitor, partial curve]
Nc1sccc1C(=O)NCc1ccccc1 | – | inconclusive: 23.8 µM [inhibitor, single point]
O=C(Nc1cc(S(=O)(=O)N2CCOCC2)ccc1N1CCCC1)c1ccc(Cl)cc1 | – | active: 7.52 µM
CN1CC=C2C(C#N)=C(N)C(C#N)(C#N)C(c3ccsc3)C2C1 (centres undefined) | – | inconclusive: 21.2 µM [inhibitor, partial curve]
Cn1ccnc1SCC(=O)c1ccc([N+](=O)[O-])cc1 | – | inconclusive: 26.7 µM [inhibitor, partial curve]
O=[N+]([O-])c1ccc(O)c(/C=N/Nc2ccccc2Cl)c1 | – | active: 26.7 µM
CCCOc1ccccc1-n1sc2c(c1=S)-c1cc(OC)cc3c1N(C(=O)C3=O)C2(C)C | inconclusive: -31.5% [inhibitor] | –
O=C1CC(Sc2nnc(-c3ccccc3O)o2)C(=O)N1c1ccccc1 (centres undefined) | – | inconclusive: 29.9 µM [inhibitor, partial curve]
COc1cccc(CC(=O)Nc2nc(-c3cccnc3)cs2)c1 | inconclusive: -30.3% [inhibitor] | –
Cc1ccc(NC(=O)Cc2nc(CCl)cs2)cc1 | inactive: -10% | –

Structural class, the entries above containing fluorine
SMILES | max response, negative = inhibition | Potency
COC(=O)C[C@@H]1CC[C@H](NS(=O)(=O)c2ccccc2F)[C@@H](CO)O1 | inactive: -4.66% | –
O=C(NCc1ccc(N2CCCC2=O)cc1)c1ccc(F)cc1 | – | inconclusive: 18.9 µM [inhibitor, partial curve]
Cn1c(=O)c2cc(NC(=O)Cc3ccccc3F)ccc2n1-c1ccc(C(C)(C)C)cc1 | inactive: -4.59% | –

Remaining list, next part.

SMILES | max response, negative = inhibition | Potency
Cc1cccc(NC(=S)NCCc2ccccc2)n1 | – | active: 33.6 µM
CN(C)/C=N/c1nc2ncc(-c3ccc(Cl)cc3)c(/N=C/N(C)C)n2n1 | – | active: 26.7 µM
Cc1sc2nc(C3CC3)nc(SCC(=O)N3CC(=O)Nc4ccccc43)c2c1C | – | inconclusive: 26.7 µM [inhibitor, partial curve]
O=C(O)c1ccc(Nc2ncc([N+](=O)[O-])cc2[N+](=O)[O-])cc1 | inactive: -12.5% | –
O=C(O)c1ccccc1N=Nc1ccc(O)cc1 | – | active: 29.9 µM
Cc1ccc2nc(NNC(=O)c3ccc4c(c3)OCCO4)sc2c1 | inactive: -5.94% | –
CCOC(=O)c1cn[nH]c1NC(=S)Nc1ccccc1 | – | inconclusive: 26.7 µM [inhibitor, single point]
Cc1ccc(-c2csc(NC(=O)C3CC=CCC3C(=O)O)c2C(=O)OC(C)C)cc1 (centres undefined) | – | inconclusive: 26.7 µM [inhibitor, single point]
COc1ccccc1CNC(=O)C(C)NS(=O)(=O)c1ccccc1 (centres undefined) | – | inconclusive: 26.7 µM [inhibitor, partial curve]
NC(c1csc(Nc2ncccn2)n1)C1CCCCC1 (centres undefined) | inactive: -7.62% | –
CN(CCC#N)C(=O)CC1(Cc2ccccc2)CCOC(C)(C)C1 (centres undefined) | inactive: -21.6% | –
Cc1cc(=S)nc(-c2ccccn2)[nH]1 | inconclusive: -30.6% [inhibitor] | –
CC(C)CS(=O)(=O)C1=NSC2=NC(=O)/C(=C\c3ccc(OC(=O)c4ccco4)cc3)C(=N)N21 | – | active: 23.8 µM
Cc1cc(SC#N)cc(C)c1NC(=O)CCl | – | inconclusive: 8.44 µM [inhibitor, partial curve]
Cc1cc(C)cc(NC(=S)N2C3CCCC2CC(NC(=O)C2CC2)C3)c1 (centres undefined) | inactive: -8.58% | –
COc1ccc(C2NCCc3c2[nH]c2ccccc32)cc1CSc1nc2ccccc2s1 (centres undefined) | inconclusive: -32.1% [inhibitor] | –
O=C(Nc1nccs1)C1CC2CCC1C2 (centres undefined) | inactive: -2.06% | –
COc1ccc(C(=O)OCc2c(-c3ccccc3)ncc3ccccc23)cc1 | inactive: -17.6% | –
O=C(Nc1ccc2c(c1)OCO2)c1cc(C2CCCCN2C(=O)CCCc2ccccc2)on1 (centres undefined) | inactive: 1.97% | –
COC(=O)C1CCN(S(=O)(=O)Cc2ccccc2)CC1 | – | inconclusive: 26.7 µM [inhibitor, partial curve]
O=C(Nn1c(-c2ccc(Br)cc2)nc2ccccc2c1=O)c1cccnc1 | – | inconclusive: 37.7 µM [inhibitor, single point]
N#CC(C#N)=C(Nc1ccc(F)cc1)SCc1cccc(Br)c1 | – | inconclusive: 29.9 µM [inhibitor, single point]
O=[N+]([O-])c1ccc(S(=O)Cc2ccccc2)c([N+](=O)[O-])c1 (centres undefined) | – | active: 0.752 µM
COc1cccc(-c2nc(CS(=O)CC(=O)NC(C)CCc3ccccc3)c(C)o2)c1 (centres undefined) | inconclusive: -32.7% [inhibitor] | –
